No constants are given. Whether binding was seen depends on the method and setting. In cells and extracts the contact can be indirect. Some entries that bind do so weakly or less than the wild type.
Target: MAP2K2 (human (endogenous in AMC-HN-8 and TU212)) (UniProt P36507)
Assay: co-IP; endogenous proteins in RIPA lysates of AMC-HN-8 and Tu212 cells; incubated overnight with anti-MAP2K2 or anti-VHL antibody (IgG as control), then beads; Western blot

Amino acid sequences for entries named in this document (tags omitted).
UniProt P55884: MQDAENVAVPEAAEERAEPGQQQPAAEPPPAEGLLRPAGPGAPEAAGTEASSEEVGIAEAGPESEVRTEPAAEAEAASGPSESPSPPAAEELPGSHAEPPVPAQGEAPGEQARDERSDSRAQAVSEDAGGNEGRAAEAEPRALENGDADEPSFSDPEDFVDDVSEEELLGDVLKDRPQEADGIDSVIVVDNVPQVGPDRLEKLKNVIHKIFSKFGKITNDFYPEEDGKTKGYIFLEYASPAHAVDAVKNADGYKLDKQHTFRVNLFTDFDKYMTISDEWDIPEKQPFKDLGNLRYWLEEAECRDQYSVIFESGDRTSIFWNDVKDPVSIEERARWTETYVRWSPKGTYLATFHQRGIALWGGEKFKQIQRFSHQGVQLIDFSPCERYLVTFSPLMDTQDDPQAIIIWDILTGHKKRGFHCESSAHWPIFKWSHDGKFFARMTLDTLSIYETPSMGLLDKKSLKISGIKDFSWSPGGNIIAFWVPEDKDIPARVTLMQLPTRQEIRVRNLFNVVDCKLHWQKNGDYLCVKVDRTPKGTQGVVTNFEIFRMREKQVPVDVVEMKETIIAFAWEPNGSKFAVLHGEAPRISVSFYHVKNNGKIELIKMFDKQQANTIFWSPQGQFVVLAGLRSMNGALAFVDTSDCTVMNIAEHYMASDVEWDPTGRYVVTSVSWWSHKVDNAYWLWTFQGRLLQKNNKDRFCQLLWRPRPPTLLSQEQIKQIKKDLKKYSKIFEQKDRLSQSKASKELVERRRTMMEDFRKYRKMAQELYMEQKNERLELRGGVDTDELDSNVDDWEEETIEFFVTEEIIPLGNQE
UniProt P40337: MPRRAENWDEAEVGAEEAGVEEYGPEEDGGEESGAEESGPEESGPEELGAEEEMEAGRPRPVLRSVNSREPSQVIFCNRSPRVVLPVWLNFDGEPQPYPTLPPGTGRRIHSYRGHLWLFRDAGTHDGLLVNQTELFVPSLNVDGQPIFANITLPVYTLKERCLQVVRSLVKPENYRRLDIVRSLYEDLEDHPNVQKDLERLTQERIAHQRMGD

| binding | Substance |
| --- | --- |
| binds | eukaryotic translation initiation factor 3 subunit B (from UniProt P55884 1-814) |
| binds | von Hippel-Lindau (VHL) (from UniProt P40337 1-213) |

Reference: publication PMC12280010
